# Experimental data taken from PubChem BioAssay AID540303 (National Center for Advancing Translational Sciences (NCATS), 2011).
# Hit rate of the full screen: of about 330,000 compounds, about 1,000 (0.3%) were called active. Inconclusive means that the source gave no clear call. Such entries were picked first, then a sample of the others. Calls follow the shape of the dose curve; as a rule, active = well fitted inhibition curve with a large enough effect; inconclusive = small, poorly fitted or top-dose-only effect; inactive = no such curve, though single readings can be large or run the other way; tested in mouse RAW 264.7 cells. Potencies beside an inconclusive call are fits to weak or partial responses and may not hold up.
# Assay: qHTS for Inhibitors of Cell Surface uPA Generation; also: nearly all actives have a fitted effect of over 55% in size
# Conditions: cell surface uPA generation assay; series mostly up to 38.3 µM
# Text: The overall objective of this project is to perform a quantitative high throughput screen (qHTS) to identify novel compounds that inhibit the generation of cell surface urokinase activity. The urokinase plasminogen activator (uPA) is one of the two primary endogenous systems that mediate plasminogen activation into plasmin. Members of this system, including uPA and its receptor (uPAR), are overexpressed in several malignant tumors. This system plays a major role in adhesion, migration, invasion and metastasis of cancer cells. Small molecule inhibitors of the uPA system will serve as probes to understand the molecular mechanisms of the uPA cascade and better understanding the microenvironmental circumstances that facilitate the activation of plasminogen by uPA, and finally may provide novel candidate agents for anticancer drug therapy.
# […] […] Upon inhibition of the uPA activation cascade, the subsequent cell surface uPA activity-dependent translocation of LF into the cytoplasm is inhibited. ATP-Lite is used to measure intracellular ATP concentrations, which remain increased if LF entry into the cytoplasm is inhibited. This validation assay was performed using a small set of validation compounds.
# NIH Chemical Genomics Center [NCGC]
# NIH Molecular Libraries Probe Centers Network [MLPCN]
# Assay Submitter (PI): Thomas Bugge, National Institute of Dental and Craniofacial Research, NIH
# Cultured RAW 264.7 were dispensed into 1536-well clear bottom, white walled tissue culture plates at a density of 4000 cells/well and were incubated overnight (12-16 h) at 37 C in a 5% CO2 incubator. Serially diluted compounds in 23 nl DMSO were added to cells. […] Compound and reagent-treated plates were incubated for 24 h at 37 C in a 5% CO2 incubator. Perkin Elmer ATPlitetrade mark 1 step (3 ul) was then added to each well. Luminescence was detected using a Perkin Elmer ViewLuxtrade mark plate reader.
# 1.Dispensing RAW 264.7 cells into 1536-well, white walled tissue culture plates at a density of 4000 cells/well (4 uL).
# 2.Incubation at 37 C in a 5% CO2 incubator overnight.
# 3.Serially diluting compounds (1:5 serial dilution; 0.0024 uM to […] final concentration) in 23 nl DMSO.
# 5.Incubating the compound and reagent-treated plates for 24 hours at 37 C in a 5% CO2 incubator.
# 6.Adding ATP-Lite (3 ul).
# 7.Reading plates by ViewLux with an exposure length of 5 seconds.
# Potency is read from the fitted curve at half-maximal effect.
row,Structure (SMILES),Potency
1,O=C1CC(N(CCc2ccccc2)C(=S)Nc2ccccc2)C(=O)N1c1ccc(F)cc1 (stereo unspecified),"inconclusive: 31.6 µM [inhibitor, partial curve, poor fit]"
2,COc1ccc(CN2CSC(=S)N(Cc3ccccc3)C2)cc1,"inconclusive: 11.2 µM [inhibitor, single point]"
3,COc1ccccc1N1CC(O)=C(c2nc3ccccc3s2)C1=N,"inconclusive: 4.47 µM [inhibitor, partial curve, poor fit]"
4,COc1ccccc1CC(=O)NC1CCCCCC1,"inconclusive: 0.355 µM [inhibitor, full curve, poor fit]"
5,CC1CCCN(c2ncnc3c2cnn3-c2ccccc2)C1 (stereo unspecified),"inconclusive: 10 µM [inhibitor, partial curve, poor fit]"
6,CCOc1ccc(-c2ccc(SCC(=O)Nc3nnc(CC)s3)nn2)cc1,inactive
7,Cc1cccc(NC(=S)N/N=C/c2cccc(O)c2)c1C,"inconclusive: 4.47 µM [inhibitor, partial curve, poor fit]"
8,Cc1ccccc1Cn1c(C(=O)OC(C)C)cc2c1ccn2C,inactive
9,Clc1cccc(Cl)c1COc1ccccc1CNn1cnnc1,"inconclusive: 12.6 µM [inhibitor, single point]"
10,Cc1ccc2c(c1)C(=O)N1[C@H]3c4cc(C)ccc4OC[C@@H]3[C@H](c3ccccc3)[C@]1(C)C(=O)N2,"inconclusive: 10 µM [inhibitor, single point]"
11,Cc1ccccc1C(=O)NC(=S)Nc1sc2c(c1C#N)CCCC2,inactive
12,COc1cc(OC)c2c(c1C(CCN1CCOCC1)c1ccc(N(C)C)cc1)OC(=O)CC2c1ccc(N(C)C)cc1 (stereo unspecified),"inconclusive: 10 µM [inhibitor, single point]"
13,CN(Cc1nc(C(c2ccccc2)c2ccccc2)no1)CC1COCCO1 (stereo unspecified),inactive
14,Cc1cccc(/C=C2/S/C(=N/N=C3\CC4CCC3(C)C4(C)C)NC2=O)c1 (stereo unspecified),inactive
15,C[N+]1(C)CCCC(OC(=O)C(O)(c2ccccc2)c2ccccc2)C1 (stereo unspecified),inactive
16,CCCCCn1c(SCc2ccncc2)nc2cc(C(=O)NCc3ccco3)ccc2c1=O,"inconclusive: 4.47 µM [inhibitor, partial curve, poor fit]"
17,COc1ccc(-c2cccc3c2NC(=O)C3=O)cc1OC,"inconclusive: 8.91 µM [inhibitor, single point]"
18,COc1cc(C(=O)NCc2nnc(SCC(=O)c3ccccc3)o2)cc(OC)c1OC,"inconclusive: 12.6 µM [inhibitor, single point]"
19,CN(C(=O)c1cccc(NC(=O)Cc2cccc(NC(=O)C3CCN(C(=O)c4ccccc4)CC3)c2)c1)C1CC1,inactive
20,COC(=O)c1sccc1NC(=S)NCc1ccc(Cl)cc1,inactive
21,COc1ccc(-c2ccc3oc(-c4ccc(OC)cc4)c(C#CCCO)c3c2)cc1,"inconclusive: 3.16 µM [inhibitor, partial curve, poor fit]"
22,C/C(=N\NC(=O)COc1cccc(C)c1)c1ccc2ccccc2c1O,"inconclusive: 11.2 µM [inhibitor, single point]"

# Shown with tabs: part of the list above.
row	Structure (SMILES)	Potency
15	C[N+]1(C)CCCC(OC(=O)C(O)(c2ccccc2)c2ccccc2)C1 (stereo unspecified)	inactive
16	CCCCCn1c(SCc2ccncc2)nc2cc(C(=O)NCc3ccco3)ccc2c1=O	inconclusive: 4.47 µM [inhibitor, partial curve, poor fit]

# Next entries.

row,Structure (SMILES),Potency
1,COc1cc2nc(CN3CCN(S(=O)(=O)c4ccc(Br)cc4)CC3)[nH]c(=O)c2cc1OC,"inconclusive: 3.55 µM [inhibitor, partial curve, poor fit]"
2,COc1cc2c(cc1OC)CN(c1ccc3ccccc3n1)CC2,inactive
3,CN(Cc1ccccc1)C(=O)c1[nH]cnc1C(=O)N[C@@H](Cc1ccccc1)C(=O)OC(C)(C)C,"inconclusive: 5.01 µM [inhibitor, full curve, poor fit]"
4,O=C(/C=C/Nc1ccc(F)c(F)c1)c1cccs1,"inconclusive: 11.2 µM [inhibitor, single point]"
5,CN1CCN(C(=O)/C(=C/c2cn(S(=O)(=O)N(C)C)c3ccccc23)NC(=O)c2ccccc2F)CC1,"inconclusive: 0.447 µM [inhibitor, full curve, poor fit]"
6,Cc1nn(Cc2noc(C(=O)NC3CCC(C)CC3)n2)c(C)c1Br (stereo unspecified),"inconclusive: 2.51 µM [inhibitor, full curve, poor fit]"
7,C=CCCN(Cc1ccccc1)S(=O)(=O)c1cc(Br)ccc1Br,"inconclusive: 5.62 µM [inhibitor, partial curve, poor fit]"
8,C[C@]12CC[C@H]3C(=CCc4cc(O)ccc43)[C@@H]1CCC2=O,"inconclusive: 12.6 µM [inhibitor, single point]"
9,CCOC(=O)NCc1ccc2c(c1)cc(C)n2C,inactive
10,Cc1ccc(-n2nc(C)c3c(C)c(CCC(=O)NCCCOC(C)C)c(C)nc32)cc1,inactive
11,CC(=O)c1ccc(N2CCN(C(=O)c3cc(-c4ccncc4)nc4ccc(Cl)cc34)CC2)cc1,"inconclusive: 3.16 µM [inhibitor, single point]"
12,CCCCN(CC)CCNC(=O)c1cc2c(-c3ccccc3F)nn(C)c2s1,"inconclusive: 8.91 µM [inhibitor, partial curve, poor fit]"
13,CC12CCC(=O)N1C(C(=O)NCc1ccc(Cl)cc1Cl)CS2 (stereo unspecified),inactive
14,Cc1ccc(C(=O)NC(=S)N(C)Cc2ccccc2)cc1,"inconclusive: 7.94 µM [inhibitor, partial curve, poor fit]"
15,COc1ccc(C(=O)/C=C/c2ccc(O)cc2)c(O)c1C/C=C(\C)CCC=C(C)C,"inconclusive: 28.2 µM [inhibitor, single point]"
16,O=C(NC1CCCCC1)c1cc(S(=O)(=O)N2CCCCC2)ccc1N1CCOCC1,"inconclusive: 8.91 µM [inhibitor, single point]"
17,CCOc1ccc(-c2nnc(N3CCOCC3)c3ccccc23)cc1,inactive
18,COc1ccccc1OCCCCNC(C)(C)C,"inconclusive: 0.316 µM [inhibitor, full curve, poor fit]"
19,O=S(=O)(c1ccccc1F)N1CCC(Oc2ccc(-n3cnnn3)cc2)CC1,"inconclusive: 12.6 µM [inhibitor, single point]"
20,CC(C)c1cc(C(C)C)n2nc(N)nc2n1,"inconclusive: 3.55 µM [inhibitor, partial curve]"
21,O=S(=O)(Nc1ccccc1)c1ccc(-c2cnc(C3CC3)o2)cc1,"inconclusive: 1 µM [inhibitor, partial curve, poor fit]"
22,Cc1ccc(Nc2nc(-c3sc(C)nc3C)cs2)cc1,"inconclusive: 0.794 µM [inhibitor, full curve, poor fit]"

row,Structure (SMILES),Potency
1,COc1ccc2cc(-c3ccccc3)ncc2c1,"inconclusive: 1 µM [inhibitor, full curve, poor fit]"
2,CCn1nc(C)c(CN2CCC(C(=O)Nc3cccc(-c4cccc(Cl)c4)c3)CC2)c1C,"inconclusive: 1.78 µM [inhibitor, full curve, poor fit]"
3,COc1ccc2[nH]c3c(c2c1)CC(C)NC3=O (stereo unspecified),"inconclusive: 22.4 µM [inhibitor, single point]"
4,N#CC1=C2SCC(O)(c3ccccc3)N2C(=O)CC1c1ccccc1 (stereo unspecified),inactive
5,O=S(=O)(NCc1ccccc1)c1ccc(F)cc1Br,"inconclusive: 11.2 µM [inhibitor, single point]"
6,COc1ccc(C(=O)N(Cc2ccccc2)c2cccc(C)c2)cc1S(=O)(=O)N1CCOCC1,"inconclusive: 28.2 µM [inhibitor, single point]"
7,Cc1cccc(NC(=O)/C=C/c2cccs2)n1,inactive
8,Cc1cccn2c(=O)c3cc(C(=O)NC4CCCC4)n(C)c3nc12,"inconclusive: 1.58 µM [inhibitor, single point]"
9,Cc1cccc(N(C)S(=O)(=O)c2cc3c(cc2C)n(C)c(=O)c(=O)n3C)c1,"inconclusive: 5.01 µM [inhibitor, single point]"
10,COc1ccc2nc(NC(=O)c3ccccc3O)sc2c1,"inconclusive: 2.51 µM [inhibitor, full curve, poor fit]"
11,CCc1cc(CNC(=O)c2ccc(OC3CCN(C(C)=O)CC3)c(OC)c2)on1,"inconclusive: 0.891 µM [inhibitor, full curve, poor fit]"
12,CCCC(C)C(=O)Nc1nc(C)c(-c2csc(Nc3cc(Cl)ccc3C)n2)s1 (stereo unspecified),"inconclusive: 12.6 µM [inhibitor, single point]"
13,Cc1cc(C)c2c(c1)-c1c(ssc1=S)C(C)(C)N2C(=O)CN1C(=O)c2ccccc2C1=O,"inconclusive: 0.316 µM [inhibitor, full curve, poor fit]"
14,CCc1nnc(NC(=O)CCC(=O)Nc2ccc(Cl)cc2)s1,inactive
15,O=C1CC(c2ccccc2)CC(O)=C1C=NCc1ccccc1Cl (stereo unspecified),"inconclusive: 0.794 µM [inhibitor, full curve, poor fit]"
16,O=C(O)c1ccc(NC(=O)C2C3CCC(O3)C2C(=O)O)cc1 (stereo unspecified),"inconclusive: 11.2 µM [inhibitor, single point]"
17,COc1cc(/C=C/C(=O)N2CCC=CC2=O)cc(OC)c1OC,"inconclusive: 1 µM [inhibitor, partial curve, poor fit]"
19,COc1ccc(-c2cnnc(N/N=C/c3ccc(-c4ccc([N+](=O)[O-])cc4)o3)n2)cc1,"inconclusive: 0.251 µM [inhibitor, full curve, poor fit]"
20,COc1ccc(C(=O)NCc2c(C)oc(C)c2C(=O)O)cc1,inactive
21,CCOC(=O)Cc1csc(SCC(=O)c2c(N)n(CC(C)C)c(=O)n(C)c2=O)n1,inactive
22,COc1ccccc1NC(=O)/C(=C\c1cccnc1)NC(=O)c1ccccc1,"inconclusive: 1.58 µM [inhibitor, full curve, poor fit]"
